Screen size: about 320,000 compounds; about 22,000 (6.9%) were called active. The shares of active, inactive and inconclusive entries below differ from those in the screen. Calls follow the shape of the dose curve; as a rule, active = well fitted inhibition curve with a large enough effect; inconclusive = small, poorly fitted or top-dose-only effect, or another doubt; inactive = no such curve, though single readings can be large or run the other way. Potencies beside an inconclusive call are fits to weak or partial responses and may not hold up.
Test: Primary qHTS for delayed death inhibitors of the malarial parasite plastid, 96 hour incubation
Conditions: P. falciparum luciferase reporter growth; series mostly up to 28.7 µM; activity change, negative = inhibition: at the top concentration
Summary of the method: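 P. falciparum expressing integrated firefly luciferase grown in erythrocytes (2% hematocrit, 0.05% parasitemia final) with compounds for 96 hours at 37 C, 5% CO2. Growth inhibition read as loss of luminescence after adding luciferase detection reagent.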
% is scaled to controls: 0 for no effect and ±100 for the full control effect; potency is read from the fitted curve at half-maximal effect.

SMILES	Potency	activity change, negative = inhibition
CSc1nnc(-c2sc3cc(C(F)(F)F)cnc3c2-c2ccccn2)n1C	inconclusive: 18.5 µM [inhibitor, single point]	
Cc1ccc(S(=O)(=O)c2nc(S(C)(=O)=O)sc2N2CCCCCC2)cc1	inconclusive: 10.4 µM [inhibitor, single point]	
C=CCNC(=O)c1sc(SC)cc1-c1ccc(Cl)cc1	inconclusive: 13.1 µM [inhibitor, partial curve, poor fit]	
COc1ccc(/C=N/c2nc3ccccc3n2CCN2CCCCC2)cc1OC		inactive: -26.7%
NC(=O)C1(N2CCCCC2)CCN(C(=S)Nc2ccc(F)cc2)CC1		inactive: -16%
CC(C)C[C@H]1CN=C(Nc2ccccc2)N1CCCC1CCCC1	active: 11.7 µM	
COc1ccc(C(=O)NNC(=O)CNC(=O)C2CCCCC2)cc1		inactive: 20.7%
CCCc1nc2oc(C(=O)c3ccccc3)c(N)c2c2c1COC(C)(C)C2	inconclusive: 18.5 µM [inhibitor, single point]	
Cc1ccc(C23CC4CC(CC(NC(=O)NC(C)(C)CO)(C4)C2)C3)cc1	inconclusive: 9.28 µM [inhibitor, single point]	
CNC(=O)c1cc2c(=O)n3cc(C)ccc3nc2n(C(C)C)c1=N	inconclusive: 11.7 µM [inhibitor, single point]	
Cc1sc2nc(SCC(=O)O)[nH]c(=O)c2c1C	inconclusive: 11.7 µM [inhibitor, partial curve, poor fit]	
COc1ccc([N+](=O)[O-])cc1N(CC(O)Cn1nnc2ccccc21)S(=O)(=O)c1ccc(C)cc1 (stereo not given)	inconclusive: 11.7 µM [inhibitor, single point]	
CC(=O)N/C(=C/c1ccc2c(c1)OCO2)C(=O)Nc1ccccc1	inconclusive: 18.5 µM [inhibitor, single point]	
Cc1nc2c3ccccc3nc(NNC(=O)CCC(=O)N3CCN(c4ccccc4)CC3)n2n1	inconclusive: 1.17 µM [inhibitor, partial curve, poor fit]	
CCOc1ccc(NC(=O)NC2CC(=O)N(c3ccc(OC)cc3)C2)cc1 (stereo not given)	inconclusive: 10.4 µM [inhibitor, single point]	
CON(c1nc(Cl)nc(N(C)C)n1)S(=O)(=O)c1ccccc1Cl		inactive: 0%
Cc1cccc(N2CCN(S(=O)(=O)c3ccc4[nH]c(=O)ccc4c3)CC2)c1C	inconclusive: 14.7 µM [inhibitor, single point]	
Cc1ccccc1Cn1cc(NC(=O)c2noc(C(C)C)c2[N+](=O)[O-])cn1	inconclusive: 18.5 µM [inhibitor, single point]	
CC(C)(C)C1COc2ccccc2N1C(=O)c1ccccc1Cl (stereo not given)		inactive: 3.64%
Cc1ccc(-c2noc(C3CCCN(C(=O)c4ccccc4Br)C3)n2)o1 (stereo not given)		inactive: 0.927%
COc1ccc(C2(c3ccc(OC)cc3)NC(=O)N(Cn3nnc4ccccc4c3=O)C2=O)cc1	inconclusive: 9.28 µM [inhibitor, partial curve, poor fit]	
CCc1ccccc1Nc1nc(N)nc(COC(=O)CCNS(=O)(=O)c2ccccc2)n1	inconclusive: 10.4 µM [inhibitor, single point]	
Cc1nc2ccccc2n1C1CCN(CC(=O)Nc2ccccc2Br)CC1		inactive: -12.3%
COc1ccccc1OCC(O)CNCc1ccc2c(c1)OCO2 (stereo not given)		inactive: 1.43%

Not a retest: entries from further up.
SMILES	Potency	activity change, negative = inhibition
CC(C)C[C@H]1CN=C(Nc2ccccc2)N1CCCC1CCCC1	active: 11.7 µM	
COc1ccc(C(=O)NNC(=O)CNC(=O)C2CCCCC2)cc1		inactive: 20.7%
CCCc1nc2oc(C(=O)c3ccccc3)c(N)c2c2c1COC(C)(C)C2	inconclusive: 18.5 µM [inhibitor, single point]	
Cc1ccc(C23CC4CC(CC(NC(=O)NC(C)(C)CO)(C4)C2)C3)cc1	inconclusive: 9.28 µM [inhibitor, single point]	

Remaining list, next part:

SMILES	Potency	activity change, negative = inhibition
Cc1cccc(OCC(=O)NCCCNC(=O)c2cnccn2)c1	inconclusive: 11.7 µM [inhibitor, single point]	
CCc1ccc(Nc2nnc(SCC(=O)c3c(N)n(C4CC4)c(=O)[nH]c3=O)s2)cc1	inconclusive: 5.22 µM [inhibitor, partial curve]	
CCOC(=O)c1cc(-c2ccc(OC(F)F)cc2)nc2nc(SC)[nH]c(=O)c12	inconclusive: 18.5 µM [inhibitor, single point]	
CCCCNCC(=O)Nc1ccc(NC(=O)CNCCCC)cc1	active: 11.7 µM	
Cc1ccc(S(=O)(=O)c2ccc(NC(=O)c3c(F)cccc3F)cc2)cc1	inconclusive: 0.928 µM [inhibitor, full curve, poor fit]	
CCOC(=O)c1c(C)[nH]c(C(=O)OCC(=O)Nc2cc(C)c(Cl)cc2OC)c1C		inactive: -2.72%
CCN(CCO)c1nc(N2CCCCC2)c2cnn(C)c2n1	inconclusive: 9.28 µM [inhibitor, partial curve, poor fit]	
CC(=O)N/C(=C\c1cccc([N+](=O)[O-])c1)C(=O)NC1CCCCC1		inactive: -13.9%
CC(=O)Nc1ccc(NC(=O)Cn2c(CC(=O)N3CCCC3)nc3ccccc32)cc1		inactive: -3.88%
O=C(Nc1cccc2ccccc12)C1CCN(C(=O)NCc2ccccc2)CC1	inconclusive: 18.5 µM [inhibitor, single point]	
CCCC(=O)O[C@@H]1C[C@@H](C)N(C(=O)c2ccccc2)c2ccc(C)cc21	inconclusive: 13.1 µM [inhibitor, partial curve]	
CC(=O)Nc1ccc(C(=O)NCCN2CCOCC2)cc1		inactive: 8.03%
Cc1c(C(=O)OC/C(O)=C(\C#N)c2nc3ccccc3[nH]2)oc2ccc(Br)cc12	inconclusive: 16.5 µM [inhibitor, single point]	
CCCNC(=O)c1ccc(S(=O)(=O)c2ccc(OC)cc2)c([N+](=O)[O-])c1		inactive: 3.54%
O=C1CSCC(=O)N1Cc1ccc(Cl)c(Cl)c1		inactive: 1.92%
COCCn1c(SCC(=O)Nc2ccc3[nH]c(=O)[nH]c3c2)nc2ccccc2c1=O	inconclusive: 13.1 µM [inhibitor, partial curve, poor fit]	
COc1ccc(C(C(=O)NC2CCCCC2)N(C(=O)c2ccco2)c2ccccc2C(C)=O)cc1 (stereo not given)	inconclusive: 6.57 µM [inhibitor, partial curve]	
CCCS(=O)(=O)N1CCCC(C(=O)N2CCN(C(=O)OCC)CC2)C1 (stereo not given)	inconclusive: 18.5 µM [inhibitor, single point]	
CCCc1c(C(=O)Nc2ccc(C(F)(F)F)cc2)cnn1-c1ccccc1	inconclusive: 4.65 µM [inhibitor, full curve, poor fit]	
Nc1c(C(=O)NCCC2=CCCCC2)sc2ccc(S(=O)(=O)N3CCCCC3)cc12	inconclusive: 9.28 µM [inhibitor, partial curve]	
CCc1[nH]nc(C(=O)N2CCCC(CCC(=O)N3CCN(c4ccccn4)CC3)C2)c1C (stereo not given)		inactive: 9.32%
COc1ccc(C2NC(=O)CCC2[N+](=O)[O-])cc1 (stereo not given)	inconclusive: 1.04 µM [inhibitor, partial curve, poor fit]	
Cn1c(-c2sccc2OCc2cccc(C(F)(F)F)c2)n[nH]c1=S	active: 14.7 µM	
COc1cccc(CN(C)C(=O)c2cc(COc3c(F)cccc3F)on2)c1		inactive: -26.3%

Whole records, quoted from the list.
`CSc1nnc(-c2sc3cc(C(F)(F)F)cnc3c2-c2ccccn2)n1C` is listed with Potency: inconclusive: 18.5 µM [inhibitor, single point]
`Cc1cccc(N2CCN(S(=O)(=O)c3ccc4[nH]c(=O)ccc4c3)CC2)c1C` is listed with Potency: inconclusive: 14.7 µM [inhibitor, single point]

Further records

SMILES	Potency	activity change, negative = inhibition
O=C(COC(=O)c1ccc(O)cc1)Nc1cc(S(=O)(=O)N2CCOCC2)ccc1Cl	active: 4.65 µM	
Fc1ccc(NC(=S)N2CCCN(c3ccc(C(F)(F)F)cn3)CC2)c(F)c1	inconclusive: 10.4 µM [inhibitor, single point]	
CCOC(=O)C1=NN(c2cccc(C)c2)C2(S1)SC(C(C)=O)=C(C)N2c1ccccc1 (stereo not given)	inconclusive: 11.7 µM [inhibitor, partial curve, poor fit]	
CC(C)N1CC(C(=O)Nc2ccc(Cl)c(Cl)c2)CC1=O (stereo not given)	inconclusive: 14.7 µM [inhibitor, single point]	
COc1cc2c(cc1OC)CN(C(=S)Nc1ccccc1Cl)CC2	inconclusive: 18.5 µM [inhibitor, single point]	
CN(C)c1ccc(/C=N/OC(=O)Nc2ccccc2)cc1	inconclusive: 3.7 µM [inhibitor, single point]	
Cc1ccc(N(CCC#N)C(=O)COC(=O)c2ccccc2SCC(=O)N2CCCC2)cc1	inconclusive: 10.4 µM [inhibitor, single point]	
Clc1cccc(-c2nnc(SCc3nc4ccccc4[nH]3)n2Cc2ccco2)c1		inactive: -0.0968% [at 5.75 µM]
Cn1cnnc1SCCC(=O)Nc1ccc(Cl)cc1		inactive: 16.1%
CC1CCN(c2nc3c(c(=O)[nH]c(=O)n3C)n2Cc2ccccc2)CC1		inactive: 11%
CC(C)CNC(=O)c1cccc(NC(=O)COc2cccc([N+](=O)[O-])c2)c1	inconclusive: 18.5 µM [inhibitor, single point]	
O=C(c1ccco1)N1CCN(C(=O)N2c3ccccc3Sc3ccccc32)CC1	inconclusive: 4.15 µM [inhibitor, single point]	
CCc1ccc(N(CC(=O)O)S(=O)(=O)c2c(C)noc2C)cc1	inconclusive: 18.5 µM [inhibitor, single point]	
N#CC1(C#N)C(C(=O)C23CC4CC(CC(C4)C2)C3)C12CCOCC2 (stereo not given)	inconclusive: 18.5 µM [inhibitor, single point]	
COc1cnc(SC(C)C)[nH]c1=O		inactive: 13.3%
COc1ccccc1N(C(=O)c1snc(C(N)=O)c1N)C(C(=O)NC1CCCC1)c1ccc(N(C)C)cc1 (stereo not given)		inactive: 5.08%
CCOC(=O)N/C(N)=N/c1nc2ccccc2s1		inactive: -3.99%
O=S(=O)(Nn1cnnc1)c1ccccc1	inconclusive: 8.28 µM [inhibitor, partial curve]	
COc1ccc(-c2nnc(NC(=O)C3CCCO3)s2)cc1 (stereo not given)		inactive: -22.9%
C=CCn1c(SCC(=O)Nc2ccc3c(c2)OCO3)nnc1-c1ccccc1O		inactive: 9.7%
O=C(/C=C/c1ccc(Cl)cc1)N1CCOCC1		inactive: 11.3%
COc1ccc(C(=O)Nc2nnc(C3=COCCO3)o2)cc1OC	inconclusive: 2.08 µM [inhibitor, partial curve, poor fit]	
